Experimental data from patent publication US20130295021A1.
No constants are given. Whether binding was seen depends on the method and setting. Some entries that bind do so weakly or less than the wild type.

The chains behind the UniProt entries cited, without tags or fusion partners. Where a name states a change or a piece, a line headed by the entry shows the natural chain unless it says otherwise.
UniProt P10636: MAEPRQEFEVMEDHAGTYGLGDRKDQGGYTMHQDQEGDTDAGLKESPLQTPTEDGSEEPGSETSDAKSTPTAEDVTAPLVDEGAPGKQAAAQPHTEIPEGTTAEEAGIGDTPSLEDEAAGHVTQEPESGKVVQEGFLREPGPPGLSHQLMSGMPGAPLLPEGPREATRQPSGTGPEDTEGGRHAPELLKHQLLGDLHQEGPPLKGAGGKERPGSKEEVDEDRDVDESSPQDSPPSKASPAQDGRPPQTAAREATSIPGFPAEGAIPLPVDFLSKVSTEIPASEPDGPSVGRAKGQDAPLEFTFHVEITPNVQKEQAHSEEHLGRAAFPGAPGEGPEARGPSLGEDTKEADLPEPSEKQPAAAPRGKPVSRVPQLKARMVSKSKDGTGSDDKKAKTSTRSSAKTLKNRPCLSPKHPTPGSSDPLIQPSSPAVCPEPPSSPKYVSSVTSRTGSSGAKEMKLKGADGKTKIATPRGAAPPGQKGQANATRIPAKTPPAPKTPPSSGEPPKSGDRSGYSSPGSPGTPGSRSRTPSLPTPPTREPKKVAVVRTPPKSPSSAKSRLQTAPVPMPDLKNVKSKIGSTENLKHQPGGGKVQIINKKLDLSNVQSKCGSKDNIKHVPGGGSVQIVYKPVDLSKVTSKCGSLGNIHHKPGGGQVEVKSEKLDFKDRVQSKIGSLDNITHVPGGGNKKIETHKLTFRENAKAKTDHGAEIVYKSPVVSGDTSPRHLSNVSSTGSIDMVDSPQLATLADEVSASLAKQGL

T1: hTau40 PepSpot peptides 96 and 97 (amino acids 387-397 of hTau40 as stated) (human)
T1 sequence (peptide): DHGAEIVYKSP

T2: hTau40 PepSpot peptides 83, 84 and 85 (covering amino acids 329-351 of hTau40) (human)
T2 sequence (peptide): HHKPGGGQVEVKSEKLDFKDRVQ


Assays:
[1] = biological target: PHFTau, paired helical filaments containing pathologically phosphorylated tau filaments extracted from AD brain (human) (UniProt P10636); assay: Western blot after SDS-PAGE
[2] = biological target: T1, hTau40 PepSpot peptides 96 and 97 (amino acids 387-397 of hTau40 as stated) (human); assay: PepSpot peptide array (legend of FIG. 4)
[3] = biological target: T2, hTau40 PepSpot peptides 83, 84 and 85 (covering amino acids 329-351 of hTau40) (human); assay: PepSpot peptide array (legend of FIG. 4)
[4] = biological target: T1, hTau40 PepSpot peptides 96 and 97 (amino acids 387-397 of hTau40 as stated) (human); assay: PepSpot peptide array, 100 nM antibody
[5] = biological target: T2, hTau40 PepSpot peptides 83, 84 and 85 (covering amino acids 329-351 of hTau40) (human); assay: PepSpot peptide array, 100 nM antibody

binding [1] | binding [2] | binding [3] | binding [4] | binding [5] | Binder
binds | – | – | – | – | recombinant human tau antibody NI-105.24B2 (antibody, human IgG1, V domains shown) VH: QVQLVQSGAEVKKPGASVKVSCKASGYTFVNYIIHWVRQAPGQGLEWMGIINPNGGNTSYAEKFQARVTLTSDTSTSTVYMDLSSLTSEDTAVYYCAVLSPSNPWGQGTTVTVSS VL: SYELTQPPSVSVSPGQTAGITCSGDALPKQFVYWYQKKPGQAPVLLIYKDTERPSRIPERFSGSTSGTTVALTINGVQAEDEADYYCQSADRSGALWVFGGGTKLTVL
– | binds | binds | binds | binds | recombinant human tau antibody NI-105.4E4 (antibody, V domains shown) VH: EVQLVESGGGLVQPGGSLKLSCAASGFNFNISAIHWVRQASGKGLEWVGRIRSKSHNYATLYAASLKGRFTLSRDDSRNTAYLQMSSLQTEDMAVYYCTVLSANYDTFDYWGQGTLVTVSS VL: SYELTQPPSVSVSPGQTARISCFGDTLPKQYTYWYQQKPGQAPVLVIYKDTERPSGIPERFSGSSSGTTVTLTISGVQAEDEADYYCLSADNSATWVFGGGTKVTVL
